Source: patent US20210188972A1 (A AND G PHARMACEUTICAL, published 2021)
These are yes or no findings as the source states them, for the method shown. Some binding calls cover weakened binding; strength is not graded here. Where a sequence is shown, tags or fusion partners need not be part of it.

Experiments:
[1] = molecular target: T1, Prostaglandin F2 Receptor Inhibitor (PTGFRN), human, on cells (human) (UniProt Q9P2B2); test: flow binding assay on A431 cells; concentration not given
T1 sequence (looked up): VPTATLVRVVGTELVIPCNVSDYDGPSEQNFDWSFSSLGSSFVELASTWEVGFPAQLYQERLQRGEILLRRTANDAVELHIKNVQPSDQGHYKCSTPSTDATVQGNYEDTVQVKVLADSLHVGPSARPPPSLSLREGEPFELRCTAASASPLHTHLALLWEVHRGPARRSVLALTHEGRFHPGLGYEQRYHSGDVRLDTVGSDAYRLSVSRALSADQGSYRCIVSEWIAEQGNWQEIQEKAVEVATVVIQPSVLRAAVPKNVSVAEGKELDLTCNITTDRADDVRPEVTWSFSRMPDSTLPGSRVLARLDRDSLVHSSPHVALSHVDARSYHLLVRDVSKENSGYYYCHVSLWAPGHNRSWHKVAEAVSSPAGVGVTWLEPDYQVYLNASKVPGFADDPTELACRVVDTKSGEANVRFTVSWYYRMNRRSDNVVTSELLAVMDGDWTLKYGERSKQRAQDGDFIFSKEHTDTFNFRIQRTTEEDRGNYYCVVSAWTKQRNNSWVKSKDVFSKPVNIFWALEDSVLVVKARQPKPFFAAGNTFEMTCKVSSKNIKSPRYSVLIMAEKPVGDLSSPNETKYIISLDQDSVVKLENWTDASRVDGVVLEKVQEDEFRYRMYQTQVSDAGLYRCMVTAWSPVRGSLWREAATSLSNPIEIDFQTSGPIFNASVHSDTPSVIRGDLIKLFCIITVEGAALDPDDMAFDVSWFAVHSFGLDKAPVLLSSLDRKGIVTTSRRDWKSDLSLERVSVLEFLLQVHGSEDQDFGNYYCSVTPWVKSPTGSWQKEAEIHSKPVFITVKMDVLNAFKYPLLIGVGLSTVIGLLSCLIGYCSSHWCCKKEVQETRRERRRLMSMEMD

[2] = molecular target: T1, Prostaglandin F2 Receptor Inhibitor (PTGFRN), human, on cells (human); test: flow binding assay on DAOY cells

B1: 3E10 (antibody, V domains shown)
VH: EVHLVESGGDLVKPGGSLKLSCAASGFTFSSYGMSWVRQTPDKRLEWVASISSGGSHTYYPDRVKGRFTISRDNAKNTLYLQMSSLKSEDTAMYYCARHPSYYGSSLYCFDYWGQGTTLTVSS
VL: DIQMTQTTSSLSASLGDRVTISCRASQDISNYLNWYQQKPDGTVKLLIYYTSRLHSGVPSRFSGSGSGTDFSLTISNLEQEDVATYFCQQGSTLPWTFGGGTKLEIK
In the case of B1, the binding [1] is reported as “binds” and the binding [2] is reported as “binds”.
